2 substances from PMC4486695 can be followed below.

Chains of the proteins cited; added tags and fusions are not shown.
UniProt P03372: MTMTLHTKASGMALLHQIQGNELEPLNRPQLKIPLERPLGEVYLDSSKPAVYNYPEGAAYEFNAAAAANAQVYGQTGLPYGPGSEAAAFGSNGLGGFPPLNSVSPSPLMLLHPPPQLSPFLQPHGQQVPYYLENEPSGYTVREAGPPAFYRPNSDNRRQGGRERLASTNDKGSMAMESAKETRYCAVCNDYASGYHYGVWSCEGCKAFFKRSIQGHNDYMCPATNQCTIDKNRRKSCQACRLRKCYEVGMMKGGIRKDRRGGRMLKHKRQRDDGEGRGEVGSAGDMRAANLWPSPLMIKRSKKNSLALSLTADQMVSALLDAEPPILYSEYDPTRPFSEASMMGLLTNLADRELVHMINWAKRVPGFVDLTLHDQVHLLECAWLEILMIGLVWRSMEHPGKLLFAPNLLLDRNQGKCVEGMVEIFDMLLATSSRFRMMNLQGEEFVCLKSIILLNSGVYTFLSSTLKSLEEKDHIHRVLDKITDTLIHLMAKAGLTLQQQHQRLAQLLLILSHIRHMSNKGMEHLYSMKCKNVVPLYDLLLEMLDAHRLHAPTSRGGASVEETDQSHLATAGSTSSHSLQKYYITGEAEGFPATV

No constants are given. Whether binding was seen depends on the method and setting. For some assays here: In cells and extracts the contact can be indirect. Some results given as binding are weak or reduced against the parent protein; the word gives no strength. Sequences can lack the tags named with a protein.

In assay [1] the target is T1, GST-ETS-1 (UniProt P14921).
T1 sequence: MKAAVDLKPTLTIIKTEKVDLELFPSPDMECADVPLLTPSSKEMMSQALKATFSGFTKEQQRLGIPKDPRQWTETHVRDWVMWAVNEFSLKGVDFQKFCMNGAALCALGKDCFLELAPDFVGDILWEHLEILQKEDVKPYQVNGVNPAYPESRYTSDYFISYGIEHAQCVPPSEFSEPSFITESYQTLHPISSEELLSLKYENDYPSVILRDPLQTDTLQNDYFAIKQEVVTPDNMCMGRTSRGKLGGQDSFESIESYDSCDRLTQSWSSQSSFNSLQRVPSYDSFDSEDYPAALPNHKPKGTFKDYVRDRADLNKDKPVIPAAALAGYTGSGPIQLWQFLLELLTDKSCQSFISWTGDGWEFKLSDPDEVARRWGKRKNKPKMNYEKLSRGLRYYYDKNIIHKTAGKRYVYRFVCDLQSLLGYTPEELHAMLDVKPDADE
Nature of the assay: pull-down; GST fusion protein bound to glutathione-Sepharose beads incubated with purified FLAG-tagged protein in 500 μl binding buffer at 4 °C for 4 h, in the presence or absence of 100 nM E2; washed three times; SDS-PAGE and western blot; both purified.

Assay [2] concerns the target T2, FLAG-ETS-1 (UniProt P14921).
T2 sequence: T1 sequence
Nature of the assay: co-IP; SH-SY5Y cells transfected with FLAG-ERα or FLAG-ETS-1, lysed after 18-24 h; precipitated with anti-FLAG monoclonal antibody, blotted with anti-ETS-1 or anti-ERα; treated without or with 100 nM E2.

On to “FLAG-ERα (purified) (from UniProt P03372 1-595) (receptor)”, for which the binding result in assay [1] is “binds”.
Turning to “endogenous ERα (estrogen receptor α) (from UniProt P03372 1-595)”, the binding result in assay [2] is reported as “binds”.
